Data: PubChem BioAssay AID463193 (University of Pittsburgh Molecular Library Screening Center, 2010)
The other results are listed elsewhere or left out.

Experiment: autophagy modulators in MEF cells, primary screen, imaging, high-content, MEF GFP-LC3 (AID 463193);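 further: cell loss after 18 h compound exposure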
Details: MEF GFP-LC3 puncta imaging, measured here: cell loss, nuclei count, at 10 µM

Compound | toxicity [%]
Cc1cccc(C)c1OP(C)(=O)Nc1ccc(SC(F)(F)F)cc1 (stereo unspecified) | -16.8
CP(=O)(Oc1ccccc1)OC(c1ccccc1)C(F)(F)F (stereo unspecified) | 2.44
O=C(COc1ccccc1)OC1CN2CCC1CC2 (stereo unspecified) | 3.64
CP(=O)(NC(=O)Nc1ccccc1)Oc1ccccc1 (stereo unspecified) | -10.4
Cc1cc(C)cc(OP(C)(=O)Nc2ccc(SC(F)(F)F)cc2)c1 (stereo unspecified) | 17
CP(=S)(Nn1cnnc1)Oc1ccccc1 (stereo unspecified) | -9.37
CP(=O)(Nc1ccccc1Br)Oc1ccccc1 (stereo unspecified) | -41.7
O=P(Nc1ccccn1)(c1cccc2ccccc12)c1cccc2ccccc12 | -2.54
Cc1cc(SC(NC=O)C(Cl)(Cl)Cl)ncn1 (stereo unspecified) | 13.5
COc1ccccc1OP(C)(=O)Nc1ccccc1 (stereo unspecified) | 8.8
Cc1cc(SC(NC(=O)c2ccccc2)C(Cl)(Cl)Cl)nc(C(C)C)n1 (stereo unspecified) | 11.9
COc1ccccc1OP(C)(=O)Nc1ccc(C)cc1 (stereo unspecified) | 11.8
Cc1ccc(NP(C)(=O)Oc2ccccc2)c(C)c1 (stereo unspecified) | 2.2
CCOC(=O)c1ccc(NP(C)(=O)Oc2ccccc2)cc1 (stereo unspecified) | 17
ClCCSc1nnc(-c2cccnc2)o1 | 8.9
Cc1cc(C)cc(OP(C)(N)=O)c1 (stereo unspecified) | -2.65

Compound | toxicity [%]
COc1ccccc1OP(C)(=O)Nc1cc(Cl)ccc1C (stereo unspecified) | 0.125
CC(C)NC(=O)NP(=O)(Oc1ccccc1)Oc1ccccc1 | 4.43
CCN(CC)C(=S)SC(NC=O)C(Cl)(Cl)Cl (stereo unspecified) | 20.9
COc1ccc(OP(C)(=O)Nc2cccc(F)c2)cc1 (stereo unspecified) | -10.9
O=[N+]([O-])c1cc([N+](=O)[O-])c(-c2ccn[nH]2)s1 | -14.2
O=[N+]([O-])c1ccc2c(c1)C=Nc1ccccc1O2 | 60.2
Cc1ccc2nc3c(c(C)c2c1)CC(C(Cl)Cl)S3 (stereo unspecified) | -6.45
CC(C)(C)c1ccc(OP(C)(=O)Nc2ccc(SC(F)(F)F)cc2)cc1 (stereo unspecified) | 5.48
Cc1cccc(C)c1OP(C)(N)=O (stereo unspecified) | -4.99
COc1ccc(N/C(=N/P(=O)(N2CCOCC2)N2CCOCC2)N2CCOCC2)cc1 | -8.28
O=C(OC1CN2CCC1CC2)C12CC3CC(CC(C3)C1)C2 (stereo unspecified) | 12.2
CCN(CC)CCCOC(=O)C(O)(c1ccccc1)c1ccccc1 | 23.6
Cc1cc(=O)[nH]c(N[N+](=O)[O-])n1 | -8.33
Cc1c2c(nc3ccccc13)SC(C(Cl)Cl)C2 (stereo unspecified) | -6.98
COc1ccc2nc(NP(=O)(c3ccccc3)c3ccccc3)sc2c1 | -6.41
